Record: PubChem BioAssay AID720505 (Drosophila RNAi Screening Center, 2013)

Assay: 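Fly regulators or components of the CRAC channel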 (primary screen)
Cell system: Drosophila S2R+ cells
Reagents: long dsRNA against Drosophila genes
Challenge: thapsigargin (2 µM) in calcium-free buffer to empty internal stores, then 2 mM calcium added back
Detection: 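Fluo-4 signal in 384-well plates read on a FLIPR after thapsigargin (2 µM, calcium-free) store depletion and 2 mM calcium add-back; unnormalised mean endpoint per well; screen run twice, selected wells retested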
Reading the numbers: calcium signal and retest calcium signal: higher = more calcium entry after store depletion
Hit rule: 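About 1500 genes called as lowering calcium entry, by varying amounts, judged against per-plate control wells with STIM1 as positive and Rho1 as negative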
Meaning of the calls: active = called as lowering calcium entry; inactive = not called
The deposit covers about 20,000 reagents; this is an unselected part of those that have a named target and a result. Of all reagents, about 2,100 (10%) were called active. 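Raw plate signals without normalisation; calls rest on control-based scores that were not deposited; replicate 2 separates called from uncalled poorly.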 Reagents against one gene are numbered here. A plus sign joins genes that one reagent is predicted to hit. Reagent sequences are not shown. Not given: the amount of reagent, the time to read-out.

no.	Target gene	dsRNA no.	calcium signal, replicate 1	calcium signal, replicate 2	retest calcium signal, replicate 1	retest calcium signal, replicate 2	Outcome
1	CG15747	1	131	113			inactive
2	P5CS	1	110	110			inactive
3	P5CS	2	88.3	110			inactive
4	Fpgs2	1	147	75			inactive
5	nmd	1	79.4	136			inactive
6	Ulp1	1	177	131			inactive
7	Or98a	1	110	77.8			inactive
8	CG33490	1	100	131			inactive
9	CG15753 (retired record)	1	80.4	157	86.6	98	inactive
10	CG15753 (retired record)	2	116	136			inactive
11	CG15753 (retired record)	3	129	98.7			inactive
12	CG15753 (retired record)	4	54	127			active
13	CG15753 (retired record)	5	66.3	88.6			active
14	CG15753 (retired record)	6	103	105			inactive
15	lbm	1	103	88.1			inactive
16	GstZ2	1	131	122			inactive
17	Rfx	1	138	127			inactive
18	Sem1	1	64.2	137			active
19	Cpr47Eg	1	102	137			inactive
20	CG18731	1	216	190			inactive
21	Uxs	1	106	94.5			inactive
22	pasi2	1	55.4	80.6			active
23	CG18417	1	75.7	64.8			inactive
24	Mgat1	1	66.9	109			inactive
25	Ptp52F	1	99	148			inactive
26	Nup188	1	177	67.1			inactive
27	UQCR-C2	1	93.2	180			inactive
28	CG12868	1	139	131			inactive
29	CG10730	1	76.4	67.4			active
30	CG10949	1	95.1	83.2			inactive
31	CG8777	1	162	131			inactive
32	CG13954	1	121	102			inactive
33	CG14710	1	128	110			inactive
34	Hug	1	158	122			inactive
35	CG30058 + CG34235 + CG34312	1	92.5	113			inactive
36	Osi6	1	103	118			inactive
37	Art7	1	131	201			inactive
38	Zip89B	1	158	183			inactive
39	Hcf	1	116	162			inactive
40	CG6996	1	91.6	93.5			inactive
41	Yp3	1	85.3	126			inactive
42	CG17734	1	127	140	7625	146	inactive
43	Paics	1	150	134			inactive
44	Atg7	1	83.2	113			inactive
45	Atg7	2	168	191			inactive
46	PolE4	1	89.9	114			inactive
47	CG8745	1	75.9	83.2			inactive
48	CG8745	2	78.7	66.9			inactive
49	CG8745	3	135	176			inactive
50	TkR99D	1	114	168			inactive
51	ver	1	104	99.4			inactive
52	CG15472	1	271	99.2			inactive
53	CG18467	1	215	190			inactive
54	CG18301	1	166	114			inactive
55	CG1724	1	202	81.4			inactive
56	ncd	1	149	123			inactive

An excerpt from above, reduced to “calcium signal, replicate 2”.
CG15753 (retired record) #5	88.6
CG15753 (retired record) #6	105
lbm	88.1
GstZ2	122
